First the molecules themselves.
B1: Dynamin-1 (protein, UniProt Q05193 1-864)
chain: MGNRGMEDLIPLVNRLQDAFSAIGQNADLDLPQIAVVGGQSAGKSSVLENFVGRDFLPRGSGIVTRRPLVLQLVNATTEYAEFLHCKGKKFTDFEEVRLEIEAETDRVTGTNKGISPVPINLRVYSPHVLNLTLVDLPGMTKVPVGDQPPDIEFQIRDMLMQFVTKENCLILAVSPANSDLANSDALKVAKEVDPQGQRTIGVITKLDLMDEGTDARDVLENKLLPLRRGYIGVVNRSQKDIDGKKDITAALAAERKFFLSHPSYRHLADRMGTPYLQKVLNQQLTNHIRDTLPGLRNKLQSQLLSIEKEVEEYKNFRPDDPARKTKALLQMVQQFAVDFEKRIEGSGDQIDTYELSGGARINRIFHERFPFELVKMEFDEKELRREISYAIKNIHGIRTGLFTPDMAFETIVKKQVKKIREPCLKCVDMVISELISTVRQCTKKLQQYPRLREEMERIVTTHIREREGRTKEQVMLLIDIELAYMNTNHEDFIGFANAQQRSNQMNKKKTSGNQDEILVIRKGWLTINNIGIMKGGSKEYWFVLTAENLSWYKDDEEKEKKYMLSVDNLKLRDVEKGFMSSKHIFALFNTEQRNVYKDYRQLELACETQEEVDSWKASFLRAGVYPERVGDKEKASETEENGSDSFMHSMDPQLERQVETIRNLVDSYMAIVNKTVRDLMPKTIMHLMINNTKEFIFSELLANLYSCGDQNTLMEESAEQAQRRDEMLRMYHALKEALSIIGDINTTTVSTPMPPPVDDSWLQVQSVPAGRRSPTSSPTPQRRAPAVPPARPGSRGPAPGPPPAGSALGGAPPVPSRPGASPDPFGPPPQVPSRPNRAPPGVPSRSGQASPSRPESPRPPFDL
B2: 14-3-3 protein γ (protein, UniProt P61981 1-247)
chain: MVDREQLVQKARLAEQAERYDDMAAAMKNVTELNEPLSNEERNLLSVAYKNVVGARRSSWRVISSIEQKTSADGNEKKIEMVRAYREKIEKELEAVCQDVLSLLDNYLIKNCSETQYESKVFYLKMKGDYYRYLAEVATGEKRATVVESSEKAYSEAHEISKEHMQPTHPIRLGLALNYSVFYYEIQNAPEQACHLAKTAFDDAIAELDTLNEDSYKDSTLIMQLLRDNLTLWTSDQQDDDGGEGNN

Protein sequences, listed by entry. Tags and fused reporters are not part of them. Residues count along the entry.
UniProt P17787, residues 26-502: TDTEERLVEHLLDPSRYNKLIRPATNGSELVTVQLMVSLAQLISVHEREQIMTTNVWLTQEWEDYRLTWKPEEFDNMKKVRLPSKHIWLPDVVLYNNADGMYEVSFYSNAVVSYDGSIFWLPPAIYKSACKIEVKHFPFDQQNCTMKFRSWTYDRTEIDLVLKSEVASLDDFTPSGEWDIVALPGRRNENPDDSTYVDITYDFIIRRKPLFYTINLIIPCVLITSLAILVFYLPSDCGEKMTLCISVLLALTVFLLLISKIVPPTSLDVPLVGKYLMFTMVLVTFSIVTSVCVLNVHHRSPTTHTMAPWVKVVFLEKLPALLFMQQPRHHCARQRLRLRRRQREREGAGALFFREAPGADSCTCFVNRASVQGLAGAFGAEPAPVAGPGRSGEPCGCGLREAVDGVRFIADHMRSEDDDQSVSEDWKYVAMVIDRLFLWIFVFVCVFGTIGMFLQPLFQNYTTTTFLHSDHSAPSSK
UniProt O43707: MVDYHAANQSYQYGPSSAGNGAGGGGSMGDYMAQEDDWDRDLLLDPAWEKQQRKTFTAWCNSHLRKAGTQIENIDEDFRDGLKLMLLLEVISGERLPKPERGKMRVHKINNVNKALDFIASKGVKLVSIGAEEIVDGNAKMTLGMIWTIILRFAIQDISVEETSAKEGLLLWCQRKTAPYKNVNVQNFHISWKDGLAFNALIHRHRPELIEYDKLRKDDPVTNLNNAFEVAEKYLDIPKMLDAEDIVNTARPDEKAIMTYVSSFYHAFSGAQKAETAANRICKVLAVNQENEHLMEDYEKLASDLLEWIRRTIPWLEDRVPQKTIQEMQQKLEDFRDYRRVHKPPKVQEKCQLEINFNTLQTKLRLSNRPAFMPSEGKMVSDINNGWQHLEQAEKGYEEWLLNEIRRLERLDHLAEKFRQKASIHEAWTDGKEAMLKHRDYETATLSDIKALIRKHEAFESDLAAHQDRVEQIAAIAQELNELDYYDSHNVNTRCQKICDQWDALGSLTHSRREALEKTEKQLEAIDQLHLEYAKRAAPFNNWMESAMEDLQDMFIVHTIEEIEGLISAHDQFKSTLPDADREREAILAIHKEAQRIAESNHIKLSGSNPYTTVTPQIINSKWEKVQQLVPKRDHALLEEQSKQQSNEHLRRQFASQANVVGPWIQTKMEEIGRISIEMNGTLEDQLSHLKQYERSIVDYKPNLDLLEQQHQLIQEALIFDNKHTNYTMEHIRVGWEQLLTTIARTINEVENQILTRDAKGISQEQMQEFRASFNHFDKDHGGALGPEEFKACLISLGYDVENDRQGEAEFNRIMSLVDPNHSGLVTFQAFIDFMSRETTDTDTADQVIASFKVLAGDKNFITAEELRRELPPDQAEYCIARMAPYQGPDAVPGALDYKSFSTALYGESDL
UniProt P61764: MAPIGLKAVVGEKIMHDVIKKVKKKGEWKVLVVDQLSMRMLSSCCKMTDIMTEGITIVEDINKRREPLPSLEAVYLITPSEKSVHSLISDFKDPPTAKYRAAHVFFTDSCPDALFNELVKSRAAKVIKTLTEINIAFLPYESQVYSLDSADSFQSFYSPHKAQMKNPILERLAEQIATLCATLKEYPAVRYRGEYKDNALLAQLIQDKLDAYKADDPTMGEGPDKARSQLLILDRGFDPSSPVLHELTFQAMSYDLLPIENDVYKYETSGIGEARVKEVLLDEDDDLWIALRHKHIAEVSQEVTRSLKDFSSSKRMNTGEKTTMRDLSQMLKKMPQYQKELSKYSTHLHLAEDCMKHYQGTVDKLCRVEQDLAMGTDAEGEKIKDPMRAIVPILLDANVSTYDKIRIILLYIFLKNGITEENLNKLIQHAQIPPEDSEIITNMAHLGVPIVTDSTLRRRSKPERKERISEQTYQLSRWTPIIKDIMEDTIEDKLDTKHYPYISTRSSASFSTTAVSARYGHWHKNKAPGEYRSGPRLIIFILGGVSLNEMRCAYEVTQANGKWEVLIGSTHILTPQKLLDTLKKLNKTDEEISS
UniProt P62760: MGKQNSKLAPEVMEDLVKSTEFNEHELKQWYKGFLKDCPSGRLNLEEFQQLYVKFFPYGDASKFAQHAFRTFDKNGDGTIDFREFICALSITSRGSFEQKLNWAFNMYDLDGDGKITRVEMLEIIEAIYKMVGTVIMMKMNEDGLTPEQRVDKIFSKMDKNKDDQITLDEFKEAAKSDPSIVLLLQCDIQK
UniProt P04406: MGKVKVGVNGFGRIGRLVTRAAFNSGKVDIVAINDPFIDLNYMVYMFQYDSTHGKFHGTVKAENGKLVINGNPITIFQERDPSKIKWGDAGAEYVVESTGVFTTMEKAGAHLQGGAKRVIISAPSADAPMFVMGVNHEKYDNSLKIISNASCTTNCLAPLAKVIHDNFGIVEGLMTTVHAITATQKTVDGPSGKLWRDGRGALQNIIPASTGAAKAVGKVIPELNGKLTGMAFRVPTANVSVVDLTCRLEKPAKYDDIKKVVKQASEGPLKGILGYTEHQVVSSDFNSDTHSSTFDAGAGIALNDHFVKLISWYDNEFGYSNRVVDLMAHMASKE
UniProt P61266: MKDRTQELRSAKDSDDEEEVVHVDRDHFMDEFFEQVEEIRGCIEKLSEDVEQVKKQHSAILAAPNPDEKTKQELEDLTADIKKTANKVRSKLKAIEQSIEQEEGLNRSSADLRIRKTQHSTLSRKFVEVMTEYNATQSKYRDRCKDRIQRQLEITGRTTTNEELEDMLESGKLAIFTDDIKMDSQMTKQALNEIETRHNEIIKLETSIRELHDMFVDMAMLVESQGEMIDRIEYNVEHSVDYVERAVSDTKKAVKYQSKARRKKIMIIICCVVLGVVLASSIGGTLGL
UniProt Q01082: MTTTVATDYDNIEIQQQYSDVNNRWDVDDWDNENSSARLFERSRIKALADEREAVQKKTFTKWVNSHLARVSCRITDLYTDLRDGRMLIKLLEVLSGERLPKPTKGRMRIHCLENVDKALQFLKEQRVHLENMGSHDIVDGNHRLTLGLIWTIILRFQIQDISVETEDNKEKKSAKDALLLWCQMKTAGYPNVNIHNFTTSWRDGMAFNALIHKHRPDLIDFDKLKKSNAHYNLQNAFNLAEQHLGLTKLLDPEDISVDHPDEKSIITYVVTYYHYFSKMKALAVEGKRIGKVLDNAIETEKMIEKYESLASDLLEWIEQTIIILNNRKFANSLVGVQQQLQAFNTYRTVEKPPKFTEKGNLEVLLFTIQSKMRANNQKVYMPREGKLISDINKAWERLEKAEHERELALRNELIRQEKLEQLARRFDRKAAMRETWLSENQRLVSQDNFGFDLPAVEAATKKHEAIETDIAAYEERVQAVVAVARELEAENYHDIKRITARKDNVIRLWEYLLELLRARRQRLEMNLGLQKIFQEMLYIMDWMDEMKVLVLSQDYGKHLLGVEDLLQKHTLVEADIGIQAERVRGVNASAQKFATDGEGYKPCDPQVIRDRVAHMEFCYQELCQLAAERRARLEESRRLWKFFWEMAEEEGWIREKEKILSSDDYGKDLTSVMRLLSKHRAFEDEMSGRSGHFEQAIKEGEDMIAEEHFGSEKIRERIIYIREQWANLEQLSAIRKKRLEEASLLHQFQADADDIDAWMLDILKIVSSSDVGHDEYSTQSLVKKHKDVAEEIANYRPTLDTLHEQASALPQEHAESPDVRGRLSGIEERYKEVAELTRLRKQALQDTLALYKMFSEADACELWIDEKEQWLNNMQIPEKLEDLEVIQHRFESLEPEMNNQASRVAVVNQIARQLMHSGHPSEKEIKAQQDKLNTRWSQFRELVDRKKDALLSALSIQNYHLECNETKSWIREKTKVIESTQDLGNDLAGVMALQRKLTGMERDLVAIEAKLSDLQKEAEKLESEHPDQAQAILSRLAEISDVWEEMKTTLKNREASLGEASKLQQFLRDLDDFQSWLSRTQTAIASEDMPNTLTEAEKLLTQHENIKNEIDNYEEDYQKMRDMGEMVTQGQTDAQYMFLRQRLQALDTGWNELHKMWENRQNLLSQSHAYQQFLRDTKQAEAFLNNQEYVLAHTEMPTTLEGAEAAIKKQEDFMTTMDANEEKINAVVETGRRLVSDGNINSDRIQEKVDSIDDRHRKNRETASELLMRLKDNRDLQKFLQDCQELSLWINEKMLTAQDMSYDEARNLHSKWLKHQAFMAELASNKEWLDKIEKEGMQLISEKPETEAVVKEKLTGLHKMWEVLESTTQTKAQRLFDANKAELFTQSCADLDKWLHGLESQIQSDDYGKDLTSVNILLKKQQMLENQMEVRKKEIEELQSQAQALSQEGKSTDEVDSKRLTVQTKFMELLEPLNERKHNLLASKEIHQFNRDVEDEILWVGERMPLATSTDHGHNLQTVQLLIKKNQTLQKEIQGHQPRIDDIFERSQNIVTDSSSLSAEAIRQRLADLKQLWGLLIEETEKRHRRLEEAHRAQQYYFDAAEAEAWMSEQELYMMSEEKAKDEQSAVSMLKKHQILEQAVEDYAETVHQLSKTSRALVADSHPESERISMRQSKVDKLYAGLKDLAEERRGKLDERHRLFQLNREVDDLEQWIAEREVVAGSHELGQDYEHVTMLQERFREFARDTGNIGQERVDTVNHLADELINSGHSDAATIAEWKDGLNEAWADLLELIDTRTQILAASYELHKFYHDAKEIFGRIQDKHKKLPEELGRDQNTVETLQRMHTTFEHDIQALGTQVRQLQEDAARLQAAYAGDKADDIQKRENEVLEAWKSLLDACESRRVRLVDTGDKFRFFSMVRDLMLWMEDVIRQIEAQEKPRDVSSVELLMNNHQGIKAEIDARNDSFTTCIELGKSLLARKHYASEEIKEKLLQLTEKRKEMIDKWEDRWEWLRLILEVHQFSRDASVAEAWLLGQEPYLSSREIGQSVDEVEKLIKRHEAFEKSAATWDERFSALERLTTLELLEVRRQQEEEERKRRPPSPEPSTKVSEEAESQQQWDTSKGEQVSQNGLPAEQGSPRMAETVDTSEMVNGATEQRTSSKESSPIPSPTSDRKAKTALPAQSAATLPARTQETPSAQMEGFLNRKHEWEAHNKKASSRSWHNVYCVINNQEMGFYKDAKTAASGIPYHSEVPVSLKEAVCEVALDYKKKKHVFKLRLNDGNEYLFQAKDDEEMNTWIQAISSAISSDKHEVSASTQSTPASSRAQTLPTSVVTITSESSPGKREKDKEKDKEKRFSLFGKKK
UniProt P25705, residues 44-553: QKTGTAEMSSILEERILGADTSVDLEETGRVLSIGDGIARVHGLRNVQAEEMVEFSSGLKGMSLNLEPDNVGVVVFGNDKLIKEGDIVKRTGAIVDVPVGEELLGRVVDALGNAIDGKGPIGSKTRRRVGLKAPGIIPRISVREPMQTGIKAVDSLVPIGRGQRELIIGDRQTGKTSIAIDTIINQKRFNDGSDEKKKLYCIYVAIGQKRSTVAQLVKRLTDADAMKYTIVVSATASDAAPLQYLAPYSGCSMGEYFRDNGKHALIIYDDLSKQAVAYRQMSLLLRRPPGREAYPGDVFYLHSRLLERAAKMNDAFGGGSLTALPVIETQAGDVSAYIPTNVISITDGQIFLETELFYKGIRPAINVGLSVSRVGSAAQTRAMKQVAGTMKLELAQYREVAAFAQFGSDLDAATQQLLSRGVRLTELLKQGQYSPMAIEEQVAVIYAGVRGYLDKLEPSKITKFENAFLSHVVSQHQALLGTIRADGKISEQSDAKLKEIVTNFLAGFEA
UniProt P35609: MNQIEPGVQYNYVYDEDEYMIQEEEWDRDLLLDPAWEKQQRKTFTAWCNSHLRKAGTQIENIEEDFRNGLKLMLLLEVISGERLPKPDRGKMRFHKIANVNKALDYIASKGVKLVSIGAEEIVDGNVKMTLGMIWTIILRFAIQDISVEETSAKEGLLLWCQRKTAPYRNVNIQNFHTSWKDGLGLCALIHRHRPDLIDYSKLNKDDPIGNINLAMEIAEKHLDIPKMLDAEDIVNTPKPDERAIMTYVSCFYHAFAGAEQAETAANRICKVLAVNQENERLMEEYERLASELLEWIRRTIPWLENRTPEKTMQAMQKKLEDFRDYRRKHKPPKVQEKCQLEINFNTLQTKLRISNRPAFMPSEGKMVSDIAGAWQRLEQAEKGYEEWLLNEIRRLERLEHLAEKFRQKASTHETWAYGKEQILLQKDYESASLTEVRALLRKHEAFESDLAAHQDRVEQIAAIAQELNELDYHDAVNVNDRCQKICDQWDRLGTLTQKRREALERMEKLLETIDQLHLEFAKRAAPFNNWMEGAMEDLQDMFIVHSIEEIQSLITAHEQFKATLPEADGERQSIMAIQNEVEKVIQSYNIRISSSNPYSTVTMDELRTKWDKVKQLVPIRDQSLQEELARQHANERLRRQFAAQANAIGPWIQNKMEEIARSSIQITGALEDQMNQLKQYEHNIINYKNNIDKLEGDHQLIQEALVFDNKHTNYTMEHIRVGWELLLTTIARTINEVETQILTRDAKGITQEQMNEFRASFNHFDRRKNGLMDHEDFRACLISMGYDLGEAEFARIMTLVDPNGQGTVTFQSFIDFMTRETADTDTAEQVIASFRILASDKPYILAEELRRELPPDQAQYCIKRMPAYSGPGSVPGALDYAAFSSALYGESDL

These are yes or no findings as the source states them, for the method shown. In cells and extracts the contact can be indirect. A yes stands for co-enrichment or nearness to the bait. Other partners may have been found.

This experiment addresses Neuronal acetylcholine receptor subunit β2 (human (endogenous in temporal cortex)) (UniProt P17787). Put plainly: affinity purification with mass spectrometry; β2*-nAChRs captured overnight at 4°C on mAb295-coupled M270 Dynabeads from a 0.6% Triton X-100 extract of postmortem human temporal cortex membranes; homogenate cross-linked with 1 mM DSP before extraction; eluted with 0.1 M NH4OH, 1 mM EDTA, pH 10; label-free LC-MS/MS (Orbitrap Elite); 18 samples from tobacco users and non-users, with or without a mood disorder.
Regarding “Sodium/potassium-transporting ATPase subunit α2 (from UniProt P50993 1-1020)”, the binding entry is “binds”. Then “Tropomyosin α4 chain (from UniProt P67936 1-248)”, with “binds”; and “Calcium/calmodulin-dependent protein kinase type II subunit α (from UniProt Q9UQM7 1-478)”, with “binds”; and α-Actinin-4 (from UniProt O43707 1-911), with “binds”.

For the molecule “IgGFc-binding protein (from UniProt Q9Y6R7 24-5405)”, the binding result was “binds”. Take “Ferritin heavy chain (from UniProt P02794 1-183)”: the binding result is “binds”. As for “Synaptotagmin-1 (from UniProt P21579 1-422)”, the entry is “binds”. Then “Serum albumin (from UniProt P02768 25-609)”, with “binds”. For “Tubulin α4A chain (from UniProt P68366 1-448)”, the binding result is “binds”. As for “Syntaxin-binding protein 1 (from UniProt P61764 1-594)”, the entry is “binds”. As for Gelsolin (from UniProt P06396 28-782), the entry is “binds”. As for “Clathrin heavy chain 1 (from UniProt Q00610 1-1675)”, the entry is “binds”; as for “Visinin-like protein 1 (from UniProt P62760 1-191)”, “binds”. With “Guanine nucleotide-binding protein G(I)/G(S)/G(T) subunit β1 (from UniProt P62873 1-340)”, the binding entry is “binds”. As for “Guanine nucleotide-binding protein G(o) subunit α (from UniProt P09471 1-354)”, the entry is “binds”; as for “Glyceraldehyde-3-phosphate dehydrogenase (from UniProt P04406 1-335)”, “binds”.

On to “ADP/ATP translocase 1 (from UniProt P12235 1-298)”, for which the binding entry is given as “binds”. Then “Tubulin β4A chain (from UniProt P04350 1-444)”, with “binds”; and Syntaxin-1B (from UniProt P61266 1-288), with “binds”; and “Plasma membrane calcium-transporting ATPase 2 (from UniProt Q01814 1-1243)”, with “binds”. Regarding Myosin-9 (from UniProt P35579 1-1960), the binding result is listed as “binds”. Then “Spectrin β chain, nonerythrocytic 1 (from UniProt Q01082 1-2364)”, with “binds”; and “ATP synthase subunit α, mito (from UniProt P25705 44-553)”, with “binds”; and “Elongation factor 1-α1 (from UniProt P68104 1-462)”, with “binds”. Turning to “Tubulin β chain (from UniProt P07437 1-444)”, the binding result was “binds”. Then “Spectrin β chain, nonerythrocytic 2 (from UniProt O15020 1-2390)”, with “binds”. As for “V-type proton ATPase subunit d 1 (from UniProt P61421 1-351)”, the entry is “binds”; as for “Calcium/calmodulin-dependent protein kinase type II subunit β (from UniProt Q13554 1-666)”, “binds”. Then “Spectrin α chain, nonerythrocytic 1 (from UniProt Q13813 1-2472)”, with “binds”; and “E3 ubiquitin-protein ligase TRIM21 (from UniProt P19474 1-475)”, with “binds”; and “Sodium/potassium-transporting ATPase subunit α3 (from UniProt P13637 1-1013)”, with “binds”. In the case of α-Actinin-1 (from UniProt P12814 1-892), the binding entry is “binds”.

On to α-Actinin-2 (from UniProt P35609 1-894), for which the binding entry is reported as “binds”. Then “Excitatory amino acid transporter 2 (from UniProt P43004 1-574)”, with “binds”; and “Vesicle-fusing ATPase (from UniProt P46459 1-744)”, with “binds”; and “Tubulin β3 chain (from UniProt Q13509 1-450)”, with “binds”. “Unconventional myosin-Va (from UniProt Q9Y4I1 1-1855)”: the binding result is recorded as “binds”. As for “Myelin basic protein (from UniProt P02686-5)”, the entry is “binds”; as for “Ig γ-4 chain C region (from UniProt P01861-1)”, “binds”. As for “V-type proton ATPase 116 kDa subunit a isoform 1 (from UniProt Q93050 1-837)”, the entry is “binds”. Turning to “14-3-3 protein ζ/δ (from UniProt P63104 1-245)”, the binding entry is listed as “binds”. Then “Myosin light polypeptide 6 (from UniProt P60660 1-151)”, with “binds”; and B1, with “binds”; and B2, with “binds”.

(Values after publication PMC4985585.)
